Results on three substances are retold here after publication PMC9977947, “Targeting ATAD3A-PINK1-mitophagy axis overcomes chemoimmunotherapy resistance by redirecting PD-L1 to mitochondria” (Cell Research, 2023).

Protein sequences, listed by entry. Tags and fused reporters are not part of them. Lines headed by an entry give the natural chain unless they say otherwise; changes in a name come on top. Residues count along the entry.
UniProt Q9BXM7, residues 78-581: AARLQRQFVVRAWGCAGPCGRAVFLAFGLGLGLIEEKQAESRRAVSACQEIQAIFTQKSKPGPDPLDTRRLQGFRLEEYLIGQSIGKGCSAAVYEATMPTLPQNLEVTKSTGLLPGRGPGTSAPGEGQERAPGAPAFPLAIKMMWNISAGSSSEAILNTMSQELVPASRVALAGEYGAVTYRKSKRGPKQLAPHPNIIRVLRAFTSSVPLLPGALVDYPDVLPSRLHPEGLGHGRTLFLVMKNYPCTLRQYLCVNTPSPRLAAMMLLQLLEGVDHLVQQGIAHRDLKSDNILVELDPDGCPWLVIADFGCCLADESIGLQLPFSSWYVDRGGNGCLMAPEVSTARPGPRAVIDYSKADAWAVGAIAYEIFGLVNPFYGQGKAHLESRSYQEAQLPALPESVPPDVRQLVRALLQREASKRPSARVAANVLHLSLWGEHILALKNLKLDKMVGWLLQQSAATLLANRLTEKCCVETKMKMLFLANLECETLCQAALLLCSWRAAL
UniProt Q9NZQ7: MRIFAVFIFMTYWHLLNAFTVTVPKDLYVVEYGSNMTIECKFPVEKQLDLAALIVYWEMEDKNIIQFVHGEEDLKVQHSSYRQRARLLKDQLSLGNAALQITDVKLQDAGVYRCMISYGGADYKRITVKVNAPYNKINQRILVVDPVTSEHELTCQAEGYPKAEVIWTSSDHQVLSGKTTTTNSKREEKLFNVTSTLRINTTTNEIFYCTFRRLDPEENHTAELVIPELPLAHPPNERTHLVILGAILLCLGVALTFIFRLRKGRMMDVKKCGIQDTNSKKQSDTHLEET
Biotin-labeled PD-L1 ICD peptide (amino acids 262-290): residues 262-290 of Q9NZQ7

No constants are given. Whether binding was seen depends on the method and setting. For part of these data: In cells and extracts the contact can be indirect. Some binding calls cover weakened binding; strength is not graded here.

In assay [1] the target is PTEN-induced kinase 1 (PINK1), in HEK293T lysate (human (endogenous in HEK293T)) (UniProt Q9BXM7). Put plainly: co-IP; HEK293T cells lysed in IP Lysis buffer; lysates incubated with antibodies against PINK1 or PD-L1 overnight at 4 °C, Protein G Sepharose beads 3 h at 4 °C, six washes, immunoblot; IgG as control. In general terms: Immunoblotting shows a protein as a band on a membrane.

The target in assay [2] is Biotin-labeled PD-L1 ICD peptide (amino acids 262-290) (UniProt Q9NZQ7). The assay can be described thus: pull-down; purified Flag-PINK1 (full length or truncated) incubated with biotin-labeled PD-L1 ICD peptide in 25 mM Tris-HCl pH 7.4, 150 mM NaCl, 1 mM EDTA, 0.05% NP-40, 10% glycerol for 12 h at 4 °C; streptavidin sepharose beads or anti-Flag M2 affinity gel 1.5 h; five washes; immunoblot; both purified.

With “PD-L1 extracellular domain (ECD) (from UniProt Q9NZQ7 19-238) (domain or fragment)”, in assay [1], the binding entry is reported as “no binding”.
Consider “Flag-labeled full-length PINK1 (amino acids 1-581) (from UniProt Q9BXM7 78-581)”, for which the binding result in assay [2] was “binds”.
For “PD-L1, full length (FL) (from UniProt Q9NZQ7 19-290)”, the binding result in assay [1] was “binds”.
